Laboratory results: publication PMC12752606, “METTL10‐Mediated PIAS3 Methylation Links Purine Metabolism to Gastric Cancer Progression” (Advanced Science, 2025)
No constants are given. Whether binding was seen depends on the method and setting. In cells and extracts the contact can be indirect. Some binding calls cover weakened binding; strength is not graded here. For part of these data: Tags and fused reporters may be left off the sequences shown.

Protein sequences, listed by entry. Tags and fused reporters are not part of them. Lines headed by an entry give the natural chain unless they say otherwise; changes in a name come on top. Chains listed by the source or under a name are the forms on record and can include a tag or linker.
UniProt O75030: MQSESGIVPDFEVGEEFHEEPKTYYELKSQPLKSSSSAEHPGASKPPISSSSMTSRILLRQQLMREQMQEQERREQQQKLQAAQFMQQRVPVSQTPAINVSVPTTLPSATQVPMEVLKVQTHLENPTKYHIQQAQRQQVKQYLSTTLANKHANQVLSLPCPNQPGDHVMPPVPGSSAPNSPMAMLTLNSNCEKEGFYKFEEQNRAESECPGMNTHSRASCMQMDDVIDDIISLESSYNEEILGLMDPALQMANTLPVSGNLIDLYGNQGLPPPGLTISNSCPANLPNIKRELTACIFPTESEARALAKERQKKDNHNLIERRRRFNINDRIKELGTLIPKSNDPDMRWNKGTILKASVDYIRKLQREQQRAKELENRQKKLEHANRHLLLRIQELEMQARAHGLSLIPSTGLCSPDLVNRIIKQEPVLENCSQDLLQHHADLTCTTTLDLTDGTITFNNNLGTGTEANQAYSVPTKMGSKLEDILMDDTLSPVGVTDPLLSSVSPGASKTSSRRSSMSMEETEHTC
Myc-METTL10 (Q5JPI9-1, form named): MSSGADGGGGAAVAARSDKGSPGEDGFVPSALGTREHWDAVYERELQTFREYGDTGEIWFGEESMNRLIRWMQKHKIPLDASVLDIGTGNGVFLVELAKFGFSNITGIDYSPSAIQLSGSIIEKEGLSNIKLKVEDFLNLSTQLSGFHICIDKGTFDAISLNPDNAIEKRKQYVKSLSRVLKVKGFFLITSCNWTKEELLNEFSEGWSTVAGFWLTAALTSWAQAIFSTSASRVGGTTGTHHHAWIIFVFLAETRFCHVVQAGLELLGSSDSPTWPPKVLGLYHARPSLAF

Key:
[1] = target: T1, PIAS3, endogenous (human (endogenous in MKN45, AGS, HEK293T)) (UniProt Q9Y6X2); experiment: co-IP; MKN45 and AGS cells with METTL10 knocked down (Figure S3h) or overexpressed (Figure S3i)
T1 sequence: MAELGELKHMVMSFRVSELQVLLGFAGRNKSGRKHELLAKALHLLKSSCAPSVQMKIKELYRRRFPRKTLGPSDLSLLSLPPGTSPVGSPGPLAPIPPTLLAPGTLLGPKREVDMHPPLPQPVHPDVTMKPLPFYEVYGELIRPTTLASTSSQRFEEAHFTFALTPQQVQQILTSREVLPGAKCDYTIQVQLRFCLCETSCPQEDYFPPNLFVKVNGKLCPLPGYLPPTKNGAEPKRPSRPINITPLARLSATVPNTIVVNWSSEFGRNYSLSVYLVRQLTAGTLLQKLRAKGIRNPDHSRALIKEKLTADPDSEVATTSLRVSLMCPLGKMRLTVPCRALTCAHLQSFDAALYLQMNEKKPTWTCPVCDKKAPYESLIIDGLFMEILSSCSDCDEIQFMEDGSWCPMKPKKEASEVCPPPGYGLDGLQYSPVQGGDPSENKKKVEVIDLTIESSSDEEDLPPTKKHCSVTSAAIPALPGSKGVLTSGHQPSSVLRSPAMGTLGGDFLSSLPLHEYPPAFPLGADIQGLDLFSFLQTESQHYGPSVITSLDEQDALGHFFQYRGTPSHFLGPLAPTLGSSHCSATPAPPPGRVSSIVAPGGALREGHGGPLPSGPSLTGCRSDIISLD

Flag-PIAS3 = target: T2, Flag-PIAS3 (UniProt Q9Y6X2); experiment: co-IP; HEK293T co-transfected with Myc-METTL10, HA-MITF and Flag-PIAS3 (GC cells too, Figure S3e); with or without METTL10 overexpressed
T2 sequence: T1 sequence

Row | binding [1] | binding (Flag-PIAS3) | Substance
1 | binds | – | MITF in MKN45 and AGS cells (from UniProt O75030 1-526)
2 | – | binds | Myc-METTL10 (from UniProt Q5JPI9-1 1-291) (enzyme)
3 | – | binds | HA-MITF (microphthalmia-associated transcription factor) (from UniProt O75030 1-526)
